The record followed here is PubChem BioAssay AID250 (DTP/NCI, 2004).

The list is a part of this screen's results and no random one: it gathers some chemical classes. Not every dose and run of a compound is shown. T/C gives the treated animals as a percentage of the vehicle group. For survival time, the PubChem record calls one and a half times the control and up active, and a quarter to a half above the control has no call in these data; cut-offs in other NCI protocols can differ. Some T/C values are marked as having no survivor count here; that says nothing about deaths at the dose. Schedules are NCI's codes, read here as Q, the interval in days (D) or hours (H), X, the number of doses. Some schedule codes hold Z or #, which are not explained here. Counts like (3×) count equal records among those shown. Some entries hold several experiments; the results are listed from low to high.

The subject of assay [1] is BDF1 mice, L1210 leukemia sc. Put plainly: NCI In Vivo Anticancer Drug Screen. Data for tumor model L1210 Leukemia (subcutaneous) in B6D2F1 (BDF1) mice. The following applies: T/C endpoint: median survival time, schedule: Q01DX Z (sc), higher T/C = longer survival. Here is the method:
(§1) The antitumor activity of compounds was measured in mice bearing transplantable tumors. Survival or tumor size were measured and the results are expressed as the measurement made in the treated group (T) divided by the measurement made in the vehicle treated control group (C). The tumor model used in this assay is L1210 Leukemia (subcutaneous) in B6D2F1 (BDF1) mice

For assay [2], the system named is BDF1 mice, L1210 leukemia sc, survival T/C. The description is as above. The following applies: T/C endpoint: median survival time, schedule: Q01DX Z (sc), higher T/C = longer survival. As to the method: as §1
The mark [3] stands for this setting: dose: 5.0 mg/kg/injection, vehicle: saline.
Setting [4] is: dose: 8.4 mg/kg/injection, vehicle: saline.
The mark [5] stands for this setting: dose: 1.8 mg/kg/injection, vehicle: saline.
Where [6] appears, read: dose: 3.0 mg/kg/injection, vehicle: saline.

For the molecule `ClCCN(CCCl)CCCN(CCCl)CCCl`, the T/C is 126 % of control [survivor count not shown] in assay [1] (setting [3]); 130 [survivor count not shown] and 136 % of control [survivor count not shown] in assay [1] (setting [4]); 105 % of control [survivor count not shown] in assay [2] (dose: 1.08 mg/kg/injection, vehicle: saline); 110 % of control [survivor count not shown] in assay [2] (setting [5]); 110 % of control [survivor count not shown] (2×) in assay [2] (setting [6]); 120 % of control [survivor count not shown] in assay [2] (setting [3]).

With `Cc1cc2nc(CN(CCCl)CCCl)[nH]c2cc1C`, the T/C in assay [1] (dose: 39.0 mg/kg/injection, vehicle: methylcellulose (MC)) is 133 % of control [survivor count not shown]; in assay [2] (dose: 14.0 mg/kg/injection, vehicle: methylcellulose (MC)), 100 % of control [survivor count not shown]; in assay [2] (dose: 23.0 mg/kg/injection, vehicle: methylcellulose (MC)) it was 100 % of control [survivor count not shown]; in assay [2] (dose: 65.0 mg/kg/injection, vehicle: methylcellulose (MC)), 155 % of control [survivor count not shown]; in assay [2] (dose: 108.0 mg/kg/injection, vehicle: methylcellulose (MC)), 155 % of control [survivor count not shown].

In the case of `COCc1c(CN(CCCl)CCCl)cnc(C)c1O`, the T/C is 90 % of control [survivor count not shown] in assay [2] (setting [5]); 90 % of control [survivor count not shown] in assay [2] (setting [6]); 95 % of control [survivor count not shown] in assay [2] (setting [3]); 100 % of control [survivor count not shown] in assay [2] (setting [4]); 109 % of control [survivor count not shown] in assay [2] (dose: 14.0 mg/kg/injection, vehicle: saline).

`ClCCNCCCNCCCl`: the T/C in assay [1] (dose: 130.0 mg/kg/injection, vehicle: saline) is 125 % of control [survivor count not shown]; in assay [2] (setting [3]), 94 % of control [survivor count not shown]; in assay [2] (dose: 10.0 mg/kg/injection, vehicle: saline), 100 [survivor count not shown] and 112 % of control [survivor count not shown]; in assay [2] (dose: 16.8 mg/kg/injection, vehicle: saline), 112 % of control [survivor count not shown]; in assay [2] (dose: 20.0 mg/kg/injection, vehicle: saline), 100 % of control [survivor count not shown]; in assay [2] (dose: 28.0 mg/kg/injection, vehicle: saline), 150 % of control [survivor count not shown]. Besides, the T/C in assay [2] (dose: 40.0 mg/kg/injection, vehicle: saline) was 100 % of control [survivor count not shown]; in assay [2] (dose: 46.7 mg/kg/injection, vehicle: saline), 168 % of control [survivor count not shown]; in assay [2] (dose: 77.8 mg/kg/injection, vehicle: saline), 156 % of control [survivor count not shown]; in assay [2] (dose: 80.0 mg/kg/injection, vehicle: saline), 150 % of control [survivor count not shown].
